In ChEMBL document CHEMBL1146196, “Bactericidal activity and resistance development profiling of dalbavancin” (2007):
Values after ≈ are worked out from the molar mass of the structure shown.

How the values were obtained:
Enterococcus faecium [1] = test: Antimicrobial activity against vancomycin-susceptible Enterococcus faecium FB767191
Enterococcus faecalis [2] = test: Antimicrobial activity against vancomycin-susceptible Enterococcus faecalis FB766782; format: functional
Enterococcus faecium [3] = test: Antimicrobial activity against vancomycin-susceptible Enterococcus faecium FB769334
Enterococcus faecalis [4] = test: Antimicrobial activity against vancomycin-susceptible Enterococcus faecalis FB766323; format: functional
Staphylococcus aureus = test: Antimicrobial activity against vancomycin-intermediate Staphylococcus aureus FB988644; format: functional

`CN[C@H](CC(C)C)C(=O)N[C@H]1C(=O)N[C@@H](CC(N)=O)C(=O)N[C@H]2C(=O)N[C@H]3C(=O)N[C@H](C(=O)N[C@H](C(=O)O)c4cc(O)cc(O)c4-c4cc3ccc4O)[C@H](O)c3ccc(c(Cl)c3)Oc3cc2cc(c3O[C@@H]2O[C@H](CO)[C@@H](O)[C@H](O)[C@H]2O[C@H]2C[C@](C)(N)[C@H](O)[C@H](C)O2)Oc2ccc(cc2Cl)[C@H]1O` [VANCOMYCIN] was tested, and the MIC (Enterococcus faecium [1]) was 2 µg/mL (≈ 1.38 µM), the MIC (Enterococcus faecalis [2]) was 1 µg/mL (≈ 0.69 µM) and the MIC (Enterococcus faecium [3]) was 0.5 µg/mL (≈ 0.345 µM). It also gave an MIC (Enterococcus faecalis [4]) of 1 µg/mL (≈ 0.69 µM) and an MIC (Staphylococcus aureus) of 8 µg/mL (≈ 5.52 µM).
